Experimental data published in PMC7819943, “Rice protein-binding microarrays: a tool to detect cis-acting elements near promoter regions in rice”.
The list shows a part of the results.

The chains behind the UniProt entries cited, without tags or fusion partners.
UniProt Q0JBA9, entry or part of it: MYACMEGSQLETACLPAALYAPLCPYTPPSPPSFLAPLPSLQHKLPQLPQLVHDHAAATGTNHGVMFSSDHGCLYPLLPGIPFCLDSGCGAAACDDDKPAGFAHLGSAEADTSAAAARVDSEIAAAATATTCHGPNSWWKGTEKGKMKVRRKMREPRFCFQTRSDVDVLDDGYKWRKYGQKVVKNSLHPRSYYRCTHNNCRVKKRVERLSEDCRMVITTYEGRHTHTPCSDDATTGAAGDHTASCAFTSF

The sequences below were run against OsWRKY34 (Oryza sativa, UniProt Q0JBA9 1-250) (assay: protein-binding microarray (RPBM); PBS, 2% BSA, 51.3 ng/ul salmon testes DNA, 50 uM zinc acetate, 200 nM TF, 25 C, 1 h; high values mean tight binding). Settings: protein: recombinant; tags: N-terminal polyhistidine and DsRed monomer fusion (pET32a); label: CyDye5-dUTP incorporated in the synthesized complementary strand; 3' TTTTT single-stranded linker to array surface; dsDNA, one strand shown.
Procedure, shortened: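 The binding signal is fluorescence intensity per array feature (arbitrary units). Readings came from an Axon 4000B scanner after a washed, 2% BSA-blocked, double-stranded custom Agilent array had been incubated for 1 h at 25 °C with 200 nM protein and 50 µM zinc acetate. The protein was a Ni–NTA-purified transcription factor fused N-terminally to polyhistidine and DsRed, expressed in E. coli BL21-CodonPlus.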

Sequence | binding signal
CCCATTTGCCATGTCAACGCACCGTACTAATTAATCCTTGCGGAGTCACCTAGTGCAG | 10200 fluorescence intensity (a.u.)
TTCCTTTGCTTTCCTATTCTTTAATTAGCCGCGGCCTTCCCGGAGTCACCTAGTGCAG | 10600 fluorescence intensity (a.u.)
TAATTTTCGTCCTTTGCACTGTTCATCTTCAACCTCTGGACGGAGTCACCTAGTGCAG | 9950 fluorescence intensity (a.u.)
CTGAAACCAACATCCAAGTCATCATGTCCAAGATGTCTCCCGGAGTCACCTAGTGCAG | 8510 fluorescence intensity (a.u.)
ACTCAAAACATAATTTTTATTGCTAGTCTTTTCTTCTTCTCGGAGTCACCTAGTGCAG | 9670 fluorescence intensity (a.u.)
GCTGTGATTTTTTTTCTTTCTCACCAGAACAAATCTGGTACGGAGTCACCTAGTGCAG | 8740 fluorescence intensity (a.u.)
TTGGTGAGTAGTGGTCGGGTGGGTCCCATTTTTTGCGTGCCGGAGTCACCTAGTGCAG | 10300 fluorescence intensity (a.u.)
CCCCGGGTAACCTAAAAACCTCAGCTTCCATACCGTTTCCCGGAGTCACCTAGTGCAG | 9600 fluorescence intensity (a.u.)
TCTGGTCTCGCGTCCCATCTCCGATCTCACTTTGCCTCTCCGGAGTCACCTAGTGCAG | 11800 fluorescence intensity (a.u.)
AATTCTGAAGAATATCTCTTCTTGGCTTATATTTTCCAGTCGGAGTCACCTAGTGCAG | 8330 fluorescence intensity (a.u.)
ATTTTGTTAGACTGGGGATGAGGTTAATTTTTTTCTTGGTCGGAGTCACCTAGTGCAG | 10900 fluorescence intensity (a.u.)
TTATTTTTTTTGTCACACTGCACTCACTGGCTGCACGTCACGGAGTCACCTAGTGCAG | 10100 fluorescence intensity (a.u.)
TACGACTTGTTTATCGCCAATTATCGGCATATCTCTTTTTCGGAGTCACCTAGTGCAG | 12500 fluorescence intensity (a.u.)
AGTGCGTGGGTTGACGATTTTGCGAAAAAGCCCTCCGGTTCGGAGTCACCTAGTGCAG | 8420 fluorescence intensity (a.u.)
AGTTCATTAGTCCTCTTTGTTTCTATGCTTGAACATATTACGGAGTCACCTAGTGCAG | 10900 fluorescence intensity (a.u.)
CTCAACTCGGGATGACATTTGGGGTGTTTTTTTTTTGCAACGGAGTCACCTAGTGCAG | 9820 fluorescence intensity (a.u.)
TCGGTTTTTCTCCGCGGCGCTTTCACCGCTCTCTCTCTCTCGGAGTCACCTAGTGCAG | 8490 fluorescence intensity (a.u.)
CGGCACCACGCCTTTCTCGTCTCGTCTCGTCTCGTCTCATCGGAGTCACCTAGTGCAG | 9020 fluorescence intensity (a.u.)
TTGTTGATTTGTGCCAGTTTTCTCCTATTTCAGTTAGTAGCGGAGTCACCTAGTGCAG | 11400 fluorescence intensity (a.u.)
GCCAGCGACACCGCCGCCATCGTTCCCCACCGCCGCCATCCGGAGTCACCTAGTGCAG | 13700 fluorescence intensity (a.u.)
CACCCGCCTCGTTCGCTTCCATCCTCTCCGCAGTCCGCACCGGAGTCACCTAGTGCAG | 8870 fluorescence intensity (a.u.)
ACCATTAACTTTTTCTTAATTCGTTTCACTATTTTTTTAACGGAGTCACCTAGTGCAG | 9500 fluorescence intensity (a.u.)
AACCGGAGTCGCCCATGTCCATTTTAGGCTAAACAACTGACGGAGTCACCTAGTGCAG | 10300 fluorescence intensity (a.u.)
CGTAATTTTTCCCACCAAATTTACCCTTTTACCTTTTTACCGGAGTCACCTAGTGCAG | 8620 fluorescence intensity (a.u.)
CAGTGGCGGATCCACCTCCCGGGCAGGTCGGGCGGCCGCCCGGAGTCACCTAGTGCAG | 8300 fluorescence intensity (a.u.)
GAAGTGGGTTTTCTTCTAGGACGGAGGGTGTACTTGACTACGGAGTCACCTAGTGCAG | 8390 fluorescence intensity (a.u.)
AACCTCTCGCGATCTGCCTCGATCCCTTCTACTCCTACTCCGGAGTCACCTAGTGCAG | 10100 fluorescence intensity (a.u.)

Taken from above:
binding signal with GCTGTGATTTTTTTTCTTTCTCACCAGAACAAATCTGGTACGGAGTCACCTAGTGCAG reads 8740 fluorescence intensity (a.u.)
binding signal with AGTTCATTAGTCCTCTTTGTTTCTATGCTTGAACATATTACGGAGTCACCTAGTGCAG reads 10900 fluorescence intensity (a.u.)
binding signal with AATTCTGAAGAATATCTCTTCTTGGCTTATATTTTCCAGTCGGAGTCACCTAGTGCAG reads 8330 fluorescence intensity (a.u.)

Further entries.

Sequence | binding signal
CGTGGTCATCTTCCTCGCGCTCGTCTTCACGCCGCGCCGCCGGAGTCACCTAGTGCAG | 8640 fluorescence intensity (a.u.)
TAGATTGATTGTTACTCCGTACATAACCTTGTCTTCTTCGCGGAGTCACCTAGTGCAG | 8470 fluorescence intensity (a.u.)
TCGATCGTTGGTTAGCGCGTACGTACGTCTTGGTCATTTGCGGAGTCACCTAGTGCAG | 12800 fluorescence intensity (a.u.)
CTGGCCGTCACCGTCGCTCTTGTCGCCATCGTATCACCGTCGGAGTCACCTAGTGCAG | 11000 fluorescence intensity (a.u.)
CCGTATTCAAACTATCCGTATTTGTTTCCGCATCTGCTGACGGAGTCACCTAGTGCAG | 9530 fluorescence intensity (a.u.)
CTAGCTGGTTGGATGACACTGATCATAGCTTGAACTTTACCGGAGTCACCTAGTGCAG | 9500 fluorescence intensity (a.u.)
ATCCCCAGCCTCCAATACCGGTCCCGTGCTTGTTTTTCTTCGGAGTCACCTAGTGCAG | 9470 fluorescence intensity (a.u.)
ATTGCAATAATTATTCTTCTCTTTAGCAGCTACCCCTTCACGGAGTCACCTAGTGCAG | 8990 fluorescence intensity (a.u.)
TCTCACGTACACCTCCGGTTTCTGATTCTTGCTTCGTGTGCGGAGTCACCTAGTGCAG | 9430 fluorescence intensity (a.u.)
GTCGCCATCTTCCCATCCCCGCGCCGCCGTCCACCATGAGCGGAGTCACCTAGTGCAG | 17200 fluorescence intensity (a.u.)
CTGGGGAGCGGGTGGGCTGTCTGCATTGTTTAGCCCATGACGGAGTCACCTAGTGCAG | 16100 fluorescence intensity (a.u.)
GGCCAACTCATTGCTACTCGGTGGTTTCAATCTTGAGGATCGGAGTCACCTAGTGCAG | 8070 fluorescence intensity (a.u.)
CTGAGGGTTATGGTTTTGTTGAGTTCTTTTCTCATGCATCCGGAGTCACCTAGTGCAG | 10600 fluorescence intensity (a.u.)
TCAGGAAAGGTTAGTCATGCTTCAATTTCTCCCGTGCATGCGGAGTCACCTAGTGCAG | 8110 fluorescence intensity (a.u.)
GACGAATTACTTGTTTAAACGAAACGGATTGGGGTTTTCTCGGAGTCACCTAGTGCAG | 9240 fluorescence intensity (a.u.)
TTTTGCTTCTCAAGAACTTGTCACTGCTCCTCGGTCAAATCGGAGTCACCTAGTGCAG | 9780 fluorescence intensity (a.u.)
TATAACATATGTCCCTTTTTTTCAATCCTGCTTACTAAAACGGAGTCACCTAGTGCAG | 10100 fluorescence intensity (a.u.)
TTCATCTTATTTAATTTTTTTTTATGATTAGGATTTTTATCGGAGTCACCTAGTGCAG | 8110 fluorescence intensity (a.u.)
GAGAGAGAGAACGAGGAAGGCCAAAATTGACTTTTATTCGCGGAGTCACCTAGTGCAG | 8480 fluorescence intensity (a.u.)
CCCTCGCGTCTCGTTGCGATCTCACCTTACGACGATCTCGCGGAGTCACCTAGTGCAG | 8540 fluorescence intensity (a.u.)
GAGCGCGCGCCGTCGTCGTCGTCGTTTCGGTTGTTGTCGTCGGAGTCACCTAGTGCAG | 8760 fluorescence intensity (a.u.)
TGTTGCTTCTTCTAGTCCGCCCCGAGAGTCACGTGACACCCGGAGTCACCTAGTGCAG | 8080 fluorescence intensity (a.u.)
ACCCTGCCAATTCACGTGTTGTAGATCTTTTTTTTTCACTCGGAGTCACCTAGTGCAG | 9750 fluorescence intensity (a.u.)
GCGTGCTGCAACCTGGGATTTTCTTTTTTCTTTTTTTTCTCGGAGTCACCTAGTGCAG | 11700 fluorescence intensity (a.u.)
TACTTATCCACCGCTTTTTTGCTTTGGCCCTCTCATTCCTCGGAGTCACCTAGTGCAG | 8660 fluorescence intensity (a.u.)
CAACCGGCCTTAGCCTAGAGCCGCGACCCTGCTCTACTCACGGAGTCACCTAGTGCAG | 8020 fluorescence intensity (a.u.)
TTGCGCGCACCGTTTTTTTGACAAATTGACCCTTTTCAAACGGAGTCACCTAGTGCAG | 8400 fluorescence intensity (a.u.)
